Data taken from patent US8337941B2, “Fluorescent substrates for monoamine transporters as optical false neurotransmitters” (The Trustees of Columbia University in the City of New York, priority 2006, dated 2012).
Some of these results come from one statement about several compounds together.

Test: photophysical characterization (fluorescence spectra)
Type: physicochemical
Details: phosphate buffer
Protocol: All spectra were recorded in 100 mM sodium phosphate (pH 7.4) unless otherwise indicated. Recorded λmax is that of the longest wavelength transition. Extinction coefficients were reported as the average of at least three independent preparations of the probes. Fluorescence measurements were taken on a Jobin Yvon Fluorolog fluorescence spectrofluorometer in 100 mM sodium phosphate pH 7.4 at a concentration of 10 uM in probe, excited at their respective λmax.

SMILES | upper concentration of linear concentration dependency of fluorescence
NCCc1cc(=O)oc2c3c4c(cc12)CCCN4CCC3 [Probe 511, 8-(2-Amino-ethyl)-2,3,5,6-tetrahydro-1H,4H-11-oxa-3a-aza-benzo[de]anthracen-10-one] | up to 50 μM
O=C(O)C(F)(F)F.O=c1cc(O)c2ccc(N3CCNCC3)cc2o1 [Probe 484, 4-(4—Hydroxy-coumarin-7-yl)-piperazin-1-ium trifluoroacetate] | up to 50 μM
